Test results from paper PMC5301934.
These are yes or no findings as the source states them, for the method shown. In cells and extracts the contact can be indirect. Some binding calls cover weakened binding; strength is not graded here. Sequences can lack the tags named with a protein.

Amino acid sequences for entries named in this document (tags omitted).
UniProt P14713: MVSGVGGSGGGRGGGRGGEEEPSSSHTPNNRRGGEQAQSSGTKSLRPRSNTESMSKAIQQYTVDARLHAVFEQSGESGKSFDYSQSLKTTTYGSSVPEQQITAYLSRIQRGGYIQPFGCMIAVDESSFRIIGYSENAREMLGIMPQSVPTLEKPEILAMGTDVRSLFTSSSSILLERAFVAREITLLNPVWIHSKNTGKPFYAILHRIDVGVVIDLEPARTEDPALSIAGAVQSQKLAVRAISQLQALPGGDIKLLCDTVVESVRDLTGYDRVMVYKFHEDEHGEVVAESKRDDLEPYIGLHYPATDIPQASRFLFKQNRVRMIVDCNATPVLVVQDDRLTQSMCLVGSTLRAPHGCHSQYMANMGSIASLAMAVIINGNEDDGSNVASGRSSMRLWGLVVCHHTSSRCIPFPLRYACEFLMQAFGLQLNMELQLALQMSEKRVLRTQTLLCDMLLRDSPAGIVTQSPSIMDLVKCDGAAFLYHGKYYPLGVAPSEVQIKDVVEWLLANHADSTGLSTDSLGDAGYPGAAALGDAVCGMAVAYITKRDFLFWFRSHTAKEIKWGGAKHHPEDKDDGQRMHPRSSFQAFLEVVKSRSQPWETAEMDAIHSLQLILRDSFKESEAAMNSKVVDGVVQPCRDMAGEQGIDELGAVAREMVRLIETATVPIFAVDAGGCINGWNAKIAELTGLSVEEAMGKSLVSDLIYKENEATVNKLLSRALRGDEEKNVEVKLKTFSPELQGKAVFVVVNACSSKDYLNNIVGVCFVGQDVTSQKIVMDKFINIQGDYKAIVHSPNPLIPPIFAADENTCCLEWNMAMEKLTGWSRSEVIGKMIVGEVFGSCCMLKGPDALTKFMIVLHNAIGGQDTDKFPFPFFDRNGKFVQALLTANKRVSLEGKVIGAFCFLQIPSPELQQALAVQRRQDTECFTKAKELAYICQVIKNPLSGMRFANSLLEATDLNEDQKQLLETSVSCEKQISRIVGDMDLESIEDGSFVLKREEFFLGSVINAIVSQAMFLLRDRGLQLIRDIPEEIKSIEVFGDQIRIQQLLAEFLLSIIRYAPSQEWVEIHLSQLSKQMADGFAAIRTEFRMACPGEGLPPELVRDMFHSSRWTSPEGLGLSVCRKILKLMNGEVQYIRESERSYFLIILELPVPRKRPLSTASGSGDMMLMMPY

How the values were obtained:
[1] = target: T1, Arabidopsis PIF3 (AtPIF3) fused to the yeast GAL4 activation domain, in vitro translated (Arabidopsis) (UniProt O80536); experiment: co-IP; in vitro; 35S-labelled TNT proteins; GAD:PIF bait on Protein A Dynabeads through anti-GAD antibody; holophytochrome (phycocyanobilin) as prey in the Pr form (red light, then 5 min far-red light); 4 °C, 4 h in darkness; PBS pH 7.25, 0.1% Tergitol NP-40, 1 mM EDTA, 0.1 mg/ml BSA; autoradiography
T1 sequence (chain, 35S-methionine label): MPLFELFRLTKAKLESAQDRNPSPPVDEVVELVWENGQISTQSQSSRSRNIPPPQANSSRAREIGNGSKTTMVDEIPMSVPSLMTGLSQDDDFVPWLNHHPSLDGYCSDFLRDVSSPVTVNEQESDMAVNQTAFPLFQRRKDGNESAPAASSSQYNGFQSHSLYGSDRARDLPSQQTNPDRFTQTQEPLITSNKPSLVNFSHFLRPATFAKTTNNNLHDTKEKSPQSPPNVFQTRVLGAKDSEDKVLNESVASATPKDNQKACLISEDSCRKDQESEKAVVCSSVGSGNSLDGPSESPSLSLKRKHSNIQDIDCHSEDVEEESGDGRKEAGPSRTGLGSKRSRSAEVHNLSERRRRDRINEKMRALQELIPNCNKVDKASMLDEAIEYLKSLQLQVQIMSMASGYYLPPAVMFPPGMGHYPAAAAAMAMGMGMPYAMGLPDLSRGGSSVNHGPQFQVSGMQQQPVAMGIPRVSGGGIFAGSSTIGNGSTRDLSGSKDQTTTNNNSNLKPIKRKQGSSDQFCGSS

[2] = target: T1, Arabidopsis PIF3 (AtPIF3) fused to the yeast GAL4 activation domain, in vitro translated (Arabidopsis); experiment: co-IP; in vitro; 35S-labelled TNT proteins; GAD:PIF bait on Protein A Dynabeads through anti-GAD antibody; holophytochrome (phycocyanobilin) as prey in the Pfr form (10 min red light); 4 °C, 4 h in darkness; PBS pH 7.25, 0.1% Tergitol NP-40, 1 mM EDTA, 0.1 mg/ml BSA; autoradiography

Arabidopsis phyB holophytochrome (AtphyB) (from UniProt P14713 1-1172)
binding [1]: no binding (condition: Pr form (after far-red light))
binding [2]: binds
